Laboratory results taken from US20110053889A1, “Prenatal and postnatal screening and treatment of critical monosaccharide deficiencies for neurologic and immunologic function” (priority 2008, published 2011).
“And” between values parts separate entries of the source, which are not always exact repeats. Identical values can stand only once. Marks after values point to notes of the source that are not given here.

How the values were obtained:
[1] = Breast milk monosaccharides by maternal Lewis blood-group phenotype (anion exchange chromatography); design: species or system human; settings: for Breast milk monosaccharide, Term, Lewis non-secretor types (a+/−, b−): d. 1-6, n = 5, M±SD; for Breast milk monosaccharide, Term, Lewis secretor (a−, b+): d. 1-6, n = 6, M±SD; for Breast milk monosaccharide, Term, combined Lewis secretor/non-secretor types: d. 1-6, n = 11, M±SD; for Breast milk monosaccharide, Preterm, combined Lewis secretor/non-secretor types: d. 1-6, n = 20, M±SD; for Breast milk monosaccharide, Preterm, combined Lewis types: n = 12, M±SD
[2] = Monosaccharide composition of preterm and term breast milk and infant formulas by gestational and postnatal age; design: species or system human; settings: for trend of breast milk monosaccharide as gestation progresses towards term, 1-6 d / trend of breast milk monosaccharide as gestation progresses towards term, 1 month / trend of breast milk monosaccharide as gestation progresses towards term, 7-10 d: 30 to ≧38 wks; for trend of breast milk monosaccharide as gestation progresses towards term, 1-6 d: milk at 1-6 d; for trend of breast milk monosaccharide as gestation progresses towards term, 1 month: milk at 1 month; for trend of breast milk monosaccharide as gestation progresses towards term, 7-10 d: milk at 7-10 d; for Breast milk monosaccharide at term adjusted age, Preterm (30-37 wks): M±SD; for Breast milk monosaccharide, Term (38-41 wks): term milk at day 1-6, M±SD; for presence in infant formulas: preterm, preterm post-discharge, term and soy formulas
[3] = Wang et al., 2001; cited from earlier work

| Compound | Breast milk monosaccharide, Term, Lewis non-secretor types (a+/−, b−) [1] [mg/L] | Breast milk monosaccharide, Term, Lewis secretor (a−, b+) [1] | Breast milk monosaccharide, Preterm, Lewis secretor (a−, b+) ([1]; d. 1-6, n = 7, M±SD) [mg/L] | Breast milk monosaccharide, Term, combined Lewis secretor/non-secretor types [1] [mg/L] | Breast milk monosaccharide, Preterm, Lewis non-secretor types (a+/−, b−) ([1]; d. 1-6, n = 13, M±SD) [mg/L] | Breast milk monosaccharide, Preterm, combined Lewis secretor/non-secretor types [1] [mg/L] | Breast milk monosaccharide, Preterm, Lewis secretor (a−, b+) ([1]; term adjusted age, n = 4, M±SD) [mg/L] | Breast milk monosaccharide, Preterm, Lewis non-secretor types (a+/−, b−) ([1]; term adjusted age, n = 8, M±SD) [mg/L] | Breast milk monosaccharide, Preterm, combined Lewis types ([1]; term adjusted age) [mg/L] | trend of breast milk monosaccharide as gestation progresses towards term, 1-6 d [2] | trend of breast milk monosaccharide as gestation progresses towards term, 1 month [2] | trend of breast milk monosaccharide as gestation progresses towards term, 7-10 d [2] | Breast milk monosaccharide at term adjusted age, Preterm (30-37 wks) [2] [mg/L] | Breast milk monosaccharide, Term (38-41 wks) [2] [mg/L] | change in preterm milk (vs. term), Birth, Lewis Combined ([1]; significant changes only) | change in term adjusted age milk (vs. term), Lewis Combined ([1]; significant changes only) | change in term adjusted age milk (vs. term), Non-secretor types ([1]; significant changes only) | further results |
| --- | --- | --- | --- | --- | --- | --- | --- | --- | --- | --- | --- | --- | --- | --- | --- | --- | --- | --- |
| C[C@H](O)[C@@H](O)[C@@H](O)[C@H](O)C=O [Fucose, L-fucose] | 1265 ± 578 | 2760 ± 1738 mg/L | 3122 ± 1020 | 2080 ± 1501 | 1146 ± 448 | 1838 ± 1179 | 2783 ± 774 | 1274 ± 687 | 1777 ± 1008 | ↑ | = | ↑ | 1777 ± 1008 | 2080 ± 1501 | – | – | – | – |
| N[C@H]1C(O)O[C@H](CO)[C@H](O)[C@@H]1O (stereo partly shown) [Galactosamine, galactosamine] | 319 ± 94 | 366 ± 72 mg/L | 348 ± 169 | 345 ± 82 | 179 ± 41 | 238 ± 130 | 196 ± 88 | 129 ± 40 | 152 ± 65 | ↑ | ↑ | = | 152 ± 65 | 345 ± 82 | ↓ | ↓ | ↓ | change in preterm milk (vs. term), Birth, Non-secretor types ([1]; significant changes only): ↓; change in term adjusted age milk (vs. term), Secretor ([1]; significant changes only): ↓ |
| O=C[C@H](O)[C@@H](O)[C@@H](O)[C@H](O)CO [Galactose, D-galactose] | 24690 ± 2234 | 22290 ± 3162 mg/L and 22291 ± 3162 mg/L | 24165 ± 3369 | 23381 ± 2927 | 24302 ± 3105 | 24254 ± 3111 | 26540 ± 5707 | 27296 ± 4071 | 27044 ± 4424 | = | = | ↑ | 27044 ± 4424 | 23381 ± 2927 | – | ↑ | – | presence in infant formulas [2]: found in all infant formulas tested |
| N[C@H]1C(O)O[C@H](CO)[C@@H](O)[C@@H]1O (stereo partly shown) [Glucosamine, glucosamine] | 7642 ± 2420 | 8650 ± 1718 mg/L | 6548 ± 2744 | 8192 ± 2024 | 4360 ± 1702 | 5125 ± 2314 | 5223 ± 2380 | 3865 ± 2121 | 4318 ± 2204 | ↑ | ↑ | ↑ | 4318 ± 2204 | 8192 ± 2024 | ↓ | ↓ | ↓ | change in preterm milk (vs. term), Birth, Non-secretor types ([1]; significant changes only): ↓; change in term adjusted age milk (vs. term), Secretor ([1]; significant changes only): ↓ |
| O=C[C@H](O)[C@@H](O)[C@H](O)[C@H](O)CO [Glucose, D-glucose] | 23616 ± 2451 | 19562 ± 5601 mg/L | 24173 ± 3907 | 21404 ± 4751 | 25006 ± 4352 | 24714 ± 4117 | 27251 ± 6902 | 29452 ± 5283 | 28718 ± 5650 | ↓ | = | ↑ | 28718 ± 5650 | 21404 ± 4751 | ↑ | ↑ | ↑ | presence in infant formulas [2]: found in all infant formulas tested |
| O=C[C@@H](O)[C@@H](O)[C@H](O)[C@H](O)CO [Mannose, mannose] | 78 ± 63 | 78 ± 138 mg/L | 126 ± 88 | 78 ± 105 | 108 ± 102 | 115 ± 96 | 92 ± 45 | 151 ± 171 | 131 ± 141 | ↑ | ↑ | ↑ | 131 ± 141 | 78 ± 105 | – | – | – | – |
| CC(=O)N[C@H]1[C@H]([C@H](O)[C@H](O)CO)OC(O)(C(=O)O)C[C@@H]1O (stereo partly shown) [Sialic Acid, N-acetylneuraminic acid] | 860 ± 207 | 658 ± 154 mg/L | 1008 ± 311 | 749 ± 200 | 969 ± 247 | 983 ± 263 | 537 ± 128 | 503 ± 203 | 514 ± 176 | ↓ | – | = | 514 ± 176 | 749 ± 200 | ↑ | ↓ | ↓ | change in preterm milk (vs. term), Birth, Secretor ([1]; significant changes only): ↑; Sialic acid content, Preterm Breast Milk [3]: .977^a mg/ml |
